Results are given in words; binding and its absence hold for the method and conditions named. In cells and extracts the contact can be indirect. Some binding calls cover weakened binding; strength is not graded here.
Experiments:
Assay in all cases: co-IP; HEK293T cells transfected with wild-type or mutated His-Keap1; IP anti-His, immunoblot with indicated antibodies (Hsc70)
[1] = target: His‐Keap1 wild‐type (expressed in HEK293T cells) (UniProt Q9Z2X8)
[2] = target: His‐Keap1 NE/AA (UniProt Q9Z2X8)
[3] = target: His‐Keap1 SQ/AA (UniProt Q9Z2X8)

Sequences of proteins named here, by UniProt entry; tags and fusion partners are left off. A change or cut given only in a name is not applied to a line headed by its entry. A line that says so, or that is headed by a name, gives the form on record, which may keep a tag or linker.
UniProt Q9Z2X8: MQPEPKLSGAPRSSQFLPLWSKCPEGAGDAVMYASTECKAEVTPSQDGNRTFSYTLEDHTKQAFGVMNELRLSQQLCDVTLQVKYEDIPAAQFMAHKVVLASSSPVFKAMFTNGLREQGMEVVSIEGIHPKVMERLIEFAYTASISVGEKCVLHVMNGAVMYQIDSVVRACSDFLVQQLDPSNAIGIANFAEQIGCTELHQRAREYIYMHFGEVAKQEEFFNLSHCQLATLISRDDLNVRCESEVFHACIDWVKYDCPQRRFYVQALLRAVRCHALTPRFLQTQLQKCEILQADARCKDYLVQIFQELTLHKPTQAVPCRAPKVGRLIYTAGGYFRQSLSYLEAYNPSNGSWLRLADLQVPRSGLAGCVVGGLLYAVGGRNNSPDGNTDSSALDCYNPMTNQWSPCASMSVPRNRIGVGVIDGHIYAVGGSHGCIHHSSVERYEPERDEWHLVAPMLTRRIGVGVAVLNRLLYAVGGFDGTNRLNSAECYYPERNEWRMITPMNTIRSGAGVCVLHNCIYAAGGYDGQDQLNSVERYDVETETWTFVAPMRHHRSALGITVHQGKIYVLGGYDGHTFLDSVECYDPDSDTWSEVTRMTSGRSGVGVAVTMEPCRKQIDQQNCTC
His‐Keap1 NE/AA (Q9Z2X8, form named): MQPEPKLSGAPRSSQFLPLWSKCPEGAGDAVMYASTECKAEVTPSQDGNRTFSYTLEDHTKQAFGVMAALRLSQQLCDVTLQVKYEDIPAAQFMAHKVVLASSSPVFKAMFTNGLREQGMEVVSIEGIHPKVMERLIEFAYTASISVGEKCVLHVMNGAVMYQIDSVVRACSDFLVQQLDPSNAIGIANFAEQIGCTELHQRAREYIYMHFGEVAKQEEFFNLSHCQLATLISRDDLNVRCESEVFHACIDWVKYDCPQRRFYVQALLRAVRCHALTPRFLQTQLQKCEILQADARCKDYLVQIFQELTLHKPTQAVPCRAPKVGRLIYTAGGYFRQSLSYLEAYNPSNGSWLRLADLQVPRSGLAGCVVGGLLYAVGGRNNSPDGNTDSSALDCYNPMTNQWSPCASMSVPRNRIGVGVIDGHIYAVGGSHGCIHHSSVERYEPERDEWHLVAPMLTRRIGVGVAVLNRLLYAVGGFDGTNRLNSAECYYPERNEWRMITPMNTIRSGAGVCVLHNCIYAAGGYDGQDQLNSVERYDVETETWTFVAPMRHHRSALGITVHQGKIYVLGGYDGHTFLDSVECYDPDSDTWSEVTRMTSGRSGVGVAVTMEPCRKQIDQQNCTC
His‐Keap1 SQ/AA (Q9Z2X8, form named): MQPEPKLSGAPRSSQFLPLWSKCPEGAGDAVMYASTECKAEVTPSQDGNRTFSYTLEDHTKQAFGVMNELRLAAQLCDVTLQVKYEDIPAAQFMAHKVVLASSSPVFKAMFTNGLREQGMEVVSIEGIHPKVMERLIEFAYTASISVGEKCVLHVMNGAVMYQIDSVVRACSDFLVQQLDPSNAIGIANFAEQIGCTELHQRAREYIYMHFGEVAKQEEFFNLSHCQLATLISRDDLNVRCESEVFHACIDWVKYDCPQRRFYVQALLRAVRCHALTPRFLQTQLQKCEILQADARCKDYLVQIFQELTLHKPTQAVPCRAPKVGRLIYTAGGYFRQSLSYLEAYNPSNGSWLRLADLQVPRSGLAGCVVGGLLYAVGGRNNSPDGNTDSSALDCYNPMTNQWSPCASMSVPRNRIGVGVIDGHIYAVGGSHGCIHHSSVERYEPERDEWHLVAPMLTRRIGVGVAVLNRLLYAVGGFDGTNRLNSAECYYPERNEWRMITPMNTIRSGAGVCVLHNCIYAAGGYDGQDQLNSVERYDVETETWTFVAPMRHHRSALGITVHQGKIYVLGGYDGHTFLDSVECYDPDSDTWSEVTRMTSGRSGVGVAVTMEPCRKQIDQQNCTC
UniProt P11142: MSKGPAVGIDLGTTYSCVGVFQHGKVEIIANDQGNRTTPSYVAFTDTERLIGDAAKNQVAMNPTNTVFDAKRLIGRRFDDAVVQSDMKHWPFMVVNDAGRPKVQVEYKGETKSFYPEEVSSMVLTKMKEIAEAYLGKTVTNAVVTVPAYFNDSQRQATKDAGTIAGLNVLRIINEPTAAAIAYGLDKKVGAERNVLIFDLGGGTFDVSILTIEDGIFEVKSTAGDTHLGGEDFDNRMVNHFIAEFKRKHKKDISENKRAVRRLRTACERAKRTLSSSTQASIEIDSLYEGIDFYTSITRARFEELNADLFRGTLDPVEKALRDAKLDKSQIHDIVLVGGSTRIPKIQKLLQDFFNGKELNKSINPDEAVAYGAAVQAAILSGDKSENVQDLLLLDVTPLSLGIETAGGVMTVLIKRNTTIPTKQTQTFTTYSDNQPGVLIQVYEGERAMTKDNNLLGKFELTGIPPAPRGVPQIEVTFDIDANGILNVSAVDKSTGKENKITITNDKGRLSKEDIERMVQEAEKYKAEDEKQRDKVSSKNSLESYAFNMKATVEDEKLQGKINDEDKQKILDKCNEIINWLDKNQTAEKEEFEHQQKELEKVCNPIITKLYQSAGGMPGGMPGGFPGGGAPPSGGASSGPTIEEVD

Measured: binding

Hsc70, endogenous in HEK293T cells (from UniProt P11142 1-646)
binds: all assays above

— article PMC9197408
